In paper PMC3998039:

B1: GL3 fused to the GAL4 activation domain (protein, UniProt Q9FN69 1-637)
chain: MATGQNRTTVPENLKKHLAVSVRNIQWSYGIFWSVSASQSGVLEWGDGYYNGDIKTRKTIQASEIKADQLGLRRSEQLSELYESLSVAESSSSGVAAGSQVTRRASAAALSPEDLADTEWYYLVCMSFVFNIGEGMPGRTFANGEPIWLCNAHTADSKVFSRSLLAKSAAVKTVVCFPFLGGVVEIGTTEHITEDMNVIQCVKTSFLEAPDPYATILPARSDYHIDNVLDPQQILGDEIYAPMFSTEPFPTASPSRTTNGFDQEHEQVADDHDSFMTERITGGASQVQSWQLMDDELSNCVHQSLNSSDCVSQTFVEGAAGRVAYGARKSRVQRLGQIQEQQRNVKTLSFDPRNDDVHYQSVISTIFKTNHQLILGPQFRNCDKQSSFTRWKKSSSSSSGTATVTAPSQGMLKKIIFDVPRVHQKEKLMLDSPEARDETGNHAVLEKKRREKLNERFMTLRKIIPSINKIDKVSILDDTIEYLQELERRVQELESCRESTDTETRGTMTMKRKKPCDAGERTSANCANNETGNGKKVSVNNVGEAEPADTGFTGLTDNLRIGSFGNEVVIELRCAWREGVLLEIMDVISDLHLDSHSVQSSTGDGLLCLTVNCKHKGSKIATPGMIKEALQRVAWIC
B2: EGL3 fused to the GAL4 activation domain (protein, UniProt Q9CAD0 1-596)
chain: MATGENRTVPDNLKKQLAVSVRNIQWSYGIFWSVSASQPGVLEWGDGYYNGDIKTRKTIQAAEVKIDQLGLERSEQLRELYESLSLAESSASGSSQVTRRASAAALSPEDLTDTEWYYLVCMSFVFNIGEGIPGGALSNGEPIWLCNAETADSKVFTRSLLAKSASLQTVVCFPFLGGVLEIGTTEHIKEDMNVIQSVKTLFLEAPPYTTISTRSDYQEIFDPLSDDKYTPVFITEAFPTTSTSGFEQEPEDHDSFINDGGASQVQSWQFVGEEISNCIHQSLNSSDCVSQTFVGTTGRLACDPRKSRIQRLGQIQEQSNHVNMDDDVHYQGVISTIFKTTHQLILGPQFQNFDKRSSFTRWKRSSSVKTLGEKSQKMIKKILFEVPLMNKKEELLPDTPEETGNHALSEKKRREKLNERFMTLRSIIPSISKIDKVSILDDTIEYLQDLQKRVQELESCRESADTETRITMMKRKKPDDEEERASANCMNSKRKGSDVNVGEDEPADIGYAGLTDNLRISSLGNEVVIELRCAWREGILLEIMDVISDLNLDSHSVQSSTGDGLLCLTVNCKHKGTKIATTGMIQEALQRVAWIC
B3: GL3 fused with cEYFP (protein, UniProt Q9FN69 1-637)
chain: B1 chain
B4: EGL3 fused with cEYFP (protein, UniProt Q9CAD0 1-596)
chain: B2 chain

Assays:
[1] = target: GmMYB73 fused to the GAL4 DNA-binding domain (soybean (Glycine max)) (UniProt Q0PJH5); experiment: two-hybrid; Matchmaker Gold system (Clontech); GmMYB73 on the GAL4 DNA-binding domain (pGBKT7), GL3 or EGL3 on the GAL4 activation domain (pGADT7); growth and blue colour on SD/-Ade/-His/-Leu/-Trp with X-a-Gal and Aureobasidin A
[2] = target: GmMYB73 fused with nEYFP (soybean (Glycine max)); experiment: split reporter; BiFC in Arabidopsis protoplasts; GmMYB73-nEYFP with GL3- or EGL3-cEYFP, 10 ug of each plasmid; EYFP fluorescence after 16 h in the dark, confocal microscope

| Binder | binding [1] | binding [2] |
| --- | --- | --- |
| B1 | binds | – |
| B2 | binds | – |
| B3 | – | binds |
| B4 | – | binds |

These are yes or no findings as the source states them, for the method shown. Binding calls can cover weak binding; strength is not graded here. Sequences can lack the tags named with a protein. For some of these results: Binding seen in cells or lysates may run through a third protein.
